Experimental data taken from the supplement of paper PMC10849652.
This is one part of the list.

Amino acid sequences for entries named in this document (tags omitted). A change or cut given only in a name is not applied to a line headed by its entry.
UniProt Q9H9Q2: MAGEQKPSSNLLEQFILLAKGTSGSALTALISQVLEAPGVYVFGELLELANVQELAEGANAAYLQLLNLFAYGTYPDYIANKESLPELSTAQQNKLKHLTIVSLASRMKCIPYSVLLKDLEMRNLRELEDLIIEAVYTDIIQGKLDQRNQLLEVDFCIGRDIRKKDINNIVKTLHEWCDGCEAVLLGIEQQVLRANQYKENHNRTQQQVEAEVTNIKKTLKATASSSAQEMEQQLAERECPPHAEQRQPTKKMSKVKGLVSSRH
UniProt P21964: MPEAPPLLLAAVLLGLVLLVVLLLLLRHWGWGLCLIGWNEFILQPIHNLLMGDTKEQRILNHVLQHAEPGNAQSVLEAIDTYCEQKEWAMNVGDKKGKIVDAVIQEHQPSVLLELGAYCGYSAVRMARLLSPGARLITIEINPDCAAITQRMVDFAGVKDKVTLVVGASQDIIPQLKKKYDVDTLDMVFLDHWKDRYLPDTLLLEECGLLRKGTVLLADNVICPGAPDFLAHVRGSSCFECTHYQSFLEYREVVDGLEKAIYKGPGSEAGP
UniProt Q9P000, whole entry, looked up: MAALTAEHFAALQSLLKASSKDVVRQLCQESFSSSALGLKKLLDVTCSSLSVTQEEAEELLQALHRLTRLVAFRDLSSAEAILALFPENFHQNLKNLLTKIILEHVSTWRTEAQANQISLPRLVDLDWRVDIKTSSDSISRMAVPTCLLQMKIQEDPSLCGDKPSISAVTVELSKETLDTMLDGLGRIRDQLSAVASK
UniProt Q9Y6M4: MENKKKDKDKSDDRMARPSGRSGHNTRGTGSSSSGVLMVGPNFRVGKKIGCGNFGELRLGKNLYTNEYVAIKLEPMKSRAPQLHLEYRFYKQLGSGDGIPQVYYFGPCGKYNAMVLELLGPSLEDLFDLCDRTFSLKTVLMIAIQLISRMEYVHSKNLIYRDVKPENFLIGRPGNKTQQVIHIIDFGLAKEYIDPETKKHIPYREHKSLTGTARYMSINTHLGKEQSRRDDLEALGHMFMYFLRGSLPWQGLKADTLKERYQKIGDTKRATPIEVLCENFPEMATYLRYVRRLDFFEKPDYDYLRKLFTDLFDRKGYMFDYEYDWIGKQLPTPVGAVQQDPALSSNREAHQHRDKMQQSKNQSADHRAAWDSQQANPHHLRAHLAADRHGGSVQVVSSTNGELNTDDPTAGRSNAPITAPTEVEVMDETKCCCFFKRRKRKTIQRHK
UniProt O75629: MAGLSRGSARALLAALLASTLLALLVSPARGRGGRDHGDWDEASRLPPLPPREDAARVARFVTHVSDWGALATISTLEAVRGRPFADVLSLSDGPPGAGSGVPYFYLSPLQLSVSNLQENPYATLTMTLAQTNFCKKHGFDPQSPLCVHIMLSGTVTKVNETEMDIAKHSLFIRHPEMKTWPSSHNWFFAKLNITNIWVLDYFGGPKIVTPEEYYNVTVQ
UniProt P16220: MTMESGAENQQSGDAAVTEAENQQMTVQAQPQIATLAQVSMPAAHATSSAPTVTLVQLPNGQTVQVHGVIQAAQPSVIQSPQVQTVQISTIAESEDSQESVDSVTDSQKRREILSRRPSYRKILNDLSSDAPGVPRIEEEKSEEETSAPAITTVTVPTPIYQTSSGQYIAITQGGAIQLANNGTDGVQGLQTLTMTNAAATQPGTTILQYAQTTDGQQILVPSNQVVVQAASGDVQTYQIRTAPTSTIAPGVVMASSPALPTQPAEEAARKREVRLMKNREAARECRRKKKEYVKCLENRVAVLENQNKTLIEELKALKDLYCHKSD
UniProt P53618: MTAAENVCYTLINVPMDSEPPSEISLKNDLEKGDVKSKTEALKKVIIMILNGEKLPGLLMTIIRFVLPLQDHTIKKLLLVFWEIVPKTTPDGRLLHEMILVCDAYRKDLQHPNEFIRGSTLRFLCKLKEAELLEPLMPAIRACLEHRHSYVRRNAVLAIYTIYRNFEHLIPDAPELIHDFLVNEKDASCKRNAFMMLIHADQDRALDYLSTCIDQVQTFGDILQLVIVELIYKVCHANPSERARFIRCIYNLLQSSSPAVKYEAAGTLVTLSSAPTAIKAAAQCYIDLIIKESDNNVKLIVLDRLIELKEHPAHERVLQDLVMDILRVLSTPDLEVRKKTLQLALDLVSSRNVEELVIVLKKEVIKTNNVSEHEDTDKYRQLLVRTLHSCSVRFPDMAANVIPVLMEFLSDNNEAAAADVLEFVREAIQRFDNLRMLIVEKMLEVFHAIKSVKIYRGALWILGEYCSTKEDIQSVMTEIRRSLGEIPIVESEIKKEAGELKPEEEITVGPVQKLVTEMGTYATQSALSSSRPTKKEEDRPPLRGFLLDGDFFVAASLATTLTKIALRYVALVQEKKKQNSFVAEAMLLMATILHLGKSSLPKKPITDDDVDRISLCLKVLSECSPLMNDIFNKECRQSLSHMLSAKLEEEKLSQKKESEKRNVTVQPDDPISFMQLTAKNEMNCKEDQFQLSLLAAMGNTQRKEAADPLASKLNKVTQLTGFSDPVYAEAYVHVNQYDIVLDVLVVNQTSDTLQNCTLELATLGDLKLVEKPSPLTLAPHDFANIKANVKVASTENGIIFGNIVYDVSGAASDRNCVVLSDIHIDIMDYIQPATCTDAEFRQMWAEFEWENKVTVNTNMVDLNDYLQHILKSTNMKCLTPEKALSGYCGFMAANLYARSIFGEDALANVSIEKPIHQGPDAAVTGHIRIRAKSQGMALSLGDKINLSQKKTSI
UniProt P31327: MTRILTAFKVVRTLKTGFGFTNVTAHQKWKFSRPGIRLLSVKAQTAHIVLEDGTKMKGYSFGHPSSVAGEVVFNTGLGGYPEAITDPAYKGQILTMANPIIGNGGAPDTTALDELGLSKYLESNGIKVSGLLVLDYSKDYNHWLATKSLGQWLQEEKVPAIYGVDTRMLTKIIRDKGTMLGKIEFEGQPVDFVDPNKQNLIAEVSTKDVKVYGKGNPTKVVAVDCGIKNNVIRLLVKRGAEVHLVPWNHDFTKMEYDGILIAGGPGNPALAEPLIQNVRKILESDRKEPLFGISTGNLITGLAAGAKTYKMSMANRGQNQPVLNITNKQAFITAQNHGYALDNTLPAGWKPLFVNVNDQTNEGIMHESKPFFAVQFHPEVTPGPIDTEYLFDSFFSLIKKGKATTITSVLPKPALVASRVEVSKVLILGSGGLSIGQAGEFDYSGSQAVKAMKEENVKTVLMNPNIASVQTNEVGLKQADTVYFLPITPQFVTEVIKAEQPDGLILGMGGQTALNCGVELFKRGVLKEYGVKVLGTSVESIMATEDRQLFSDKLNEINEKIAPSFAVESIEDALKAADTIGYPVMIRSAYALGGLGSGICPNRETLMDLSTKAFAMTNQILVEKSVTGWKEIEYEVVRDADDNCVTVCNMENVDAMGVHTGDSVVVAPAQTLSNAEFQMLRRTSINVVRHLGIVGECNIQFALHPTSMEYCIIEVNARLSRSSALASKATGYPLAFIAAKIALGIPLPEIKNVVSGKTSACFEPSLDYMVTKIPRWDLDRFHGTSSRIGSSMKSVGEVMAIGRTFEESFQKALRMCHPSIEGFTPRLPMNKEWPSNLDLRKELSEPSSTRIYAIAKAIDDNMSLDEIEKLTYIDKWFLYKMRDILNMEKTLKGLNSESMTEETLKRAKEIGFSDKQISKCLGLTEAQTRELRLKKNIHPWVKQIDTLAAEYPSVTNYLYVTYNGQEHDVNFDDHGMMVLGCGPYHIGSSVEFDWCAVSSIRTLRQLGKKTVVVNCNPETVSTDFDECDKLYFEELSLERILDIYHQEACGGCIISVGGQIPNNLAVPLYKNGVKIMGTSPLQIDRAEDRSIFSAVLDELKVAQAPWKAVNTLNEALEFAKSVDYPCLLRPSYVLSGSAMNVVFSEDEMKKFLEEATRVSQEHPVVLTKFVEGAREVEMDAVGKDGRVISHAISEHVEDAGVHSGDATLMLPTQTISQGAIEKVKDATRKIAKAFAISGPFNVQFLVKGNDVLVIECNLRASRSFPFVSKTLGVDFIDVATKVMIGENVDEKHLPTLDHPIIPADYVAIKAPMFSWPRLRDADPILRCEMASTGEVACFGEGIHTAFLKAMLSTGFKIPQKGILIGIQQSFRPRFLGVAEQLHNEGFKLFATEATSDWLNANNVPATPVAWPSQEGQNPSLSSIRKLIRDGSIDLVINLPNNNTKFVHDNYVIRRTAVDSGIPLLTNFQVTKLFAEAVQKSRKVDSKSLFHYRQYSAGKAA
UniProt P15954, whole entry, looked up: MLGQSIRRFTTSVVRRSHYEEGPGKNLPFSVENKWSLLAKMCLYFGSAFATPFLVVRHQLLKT
UniProt Q99627: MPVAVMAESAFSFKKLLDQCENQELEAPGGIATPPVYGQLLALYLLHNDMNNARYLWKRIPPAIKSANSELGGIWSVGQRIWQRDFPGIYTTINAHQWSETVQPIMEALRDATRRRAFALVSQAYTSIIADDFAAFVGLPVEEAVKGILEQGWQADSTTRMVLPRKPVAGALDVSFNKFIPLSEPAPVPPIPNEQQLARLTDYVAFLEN
UniProt Q92828: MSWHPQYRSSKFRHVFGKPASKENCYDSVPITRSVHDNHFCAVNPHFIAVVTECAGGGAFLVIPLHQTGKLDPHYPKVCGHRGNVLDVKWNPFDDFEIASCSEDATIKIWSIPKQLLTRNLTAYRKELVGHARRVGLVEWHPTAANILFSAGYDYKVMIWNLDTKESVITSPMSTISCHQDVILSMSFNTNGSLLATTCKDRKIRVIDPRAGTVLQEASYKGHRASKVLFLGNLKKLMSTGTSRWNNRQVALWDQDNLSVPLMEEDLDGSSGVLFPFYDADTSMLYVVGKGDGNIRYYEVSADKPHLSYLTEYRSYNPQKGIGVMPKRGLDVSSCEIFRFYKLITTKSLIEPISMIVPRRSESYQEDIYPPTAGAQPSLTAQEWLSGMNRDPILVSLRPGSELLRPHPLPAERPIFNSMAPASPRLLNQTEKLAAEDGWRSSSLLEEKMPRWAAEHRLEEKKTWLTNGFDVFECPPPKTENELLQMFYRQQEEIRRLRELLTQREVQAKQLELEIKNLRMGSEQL
UniProt Q96SW2: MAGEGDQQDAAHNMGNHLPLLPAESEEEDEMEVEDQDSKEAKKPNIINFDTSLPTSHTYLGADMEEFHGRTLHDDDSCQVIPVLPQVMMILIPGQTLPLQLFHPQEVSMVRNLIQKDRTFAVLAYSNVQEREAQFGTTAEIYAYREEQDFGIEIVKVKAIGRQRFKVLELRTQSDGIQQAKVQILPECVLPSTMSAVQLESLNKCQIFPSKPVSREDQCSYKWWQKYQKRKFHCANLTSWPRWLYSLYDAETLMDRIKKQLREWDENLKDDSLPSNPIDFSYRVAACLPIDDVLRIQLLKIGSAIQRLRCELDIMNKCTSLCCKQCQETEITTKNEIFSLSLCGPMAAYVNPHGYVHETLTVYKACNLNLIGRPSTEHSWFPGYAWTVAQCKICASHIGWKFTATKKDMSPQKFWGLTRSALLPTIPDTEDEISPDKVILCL
UniProt Q86VX2, whole entry, looked up: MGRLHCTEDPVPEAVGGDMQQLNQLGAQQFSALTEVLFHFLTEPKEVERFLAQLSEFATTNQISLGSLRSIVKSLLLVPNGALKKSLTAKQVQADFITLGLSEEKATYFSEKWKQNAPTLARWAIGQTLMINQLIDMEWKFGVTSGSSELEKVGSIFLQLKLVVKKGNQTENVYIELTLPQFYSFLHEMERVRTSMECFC
UniProt Q12887: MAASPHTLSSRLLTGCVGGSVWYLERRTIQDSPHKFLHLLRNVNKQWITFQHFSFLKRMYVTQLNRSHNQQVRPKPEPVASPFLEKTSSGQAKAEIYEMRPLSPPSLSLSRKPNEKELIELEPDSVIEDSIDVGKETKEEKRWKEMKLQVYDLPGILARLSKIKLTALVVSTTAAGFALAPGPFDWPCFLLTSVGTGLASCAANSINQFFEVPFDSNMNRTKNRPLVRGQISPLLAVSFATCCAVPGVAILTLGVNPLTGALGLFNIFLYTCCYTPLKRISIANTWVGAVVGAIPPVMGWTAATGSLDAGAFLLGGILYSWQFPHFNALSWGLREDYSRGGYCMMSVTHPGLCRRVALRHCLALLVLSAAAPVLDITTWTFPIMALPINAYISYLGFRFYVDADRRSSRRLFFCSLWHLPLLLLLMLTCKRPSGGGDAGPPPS
UniProt Q9BR76, whole entry, looked up: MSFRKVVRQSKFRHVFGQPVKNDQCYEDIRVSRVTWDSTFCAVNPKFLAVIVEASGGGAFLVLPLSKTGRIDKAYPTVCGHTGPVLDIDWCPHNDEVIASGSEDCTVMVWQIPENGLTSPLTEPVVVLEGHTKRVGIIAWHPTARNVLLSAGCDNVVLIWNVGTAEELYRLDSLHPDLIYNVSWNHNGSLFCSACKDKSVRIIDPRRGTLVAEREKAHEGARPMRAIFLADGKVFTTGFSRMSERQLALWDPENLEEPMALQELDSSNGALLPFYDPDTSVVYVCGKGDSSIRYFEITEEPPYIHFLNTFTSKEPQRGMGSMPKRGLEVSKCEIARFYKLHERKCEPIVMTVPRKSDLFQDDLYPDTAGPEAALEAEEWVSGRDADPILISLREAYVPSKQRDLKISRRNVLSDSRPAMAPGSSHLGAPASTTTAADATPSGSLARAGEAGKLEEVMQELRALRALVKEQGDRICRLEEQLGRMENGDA

Columns and labels:
Test in all cases: log2 fold change, soluble protein after heating vs DMSO (PISA); higher = thermal stabilisation; K562 cells, 10 uM, 30 min; active = over 0.2 and 3.5 SD of the protein, either way, in both replicates (recomputed)
[1] = compound: C#Cc1cccc(Nc2ncnc3cc(OCCOC)c(OCCOC)cc23)c1 [erlotinib]
Summary of the method: (§1)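 K562 cells at 2×10^6 cells/mL were treated with 10 μM compound for 30 min. Aliquots were heated for 3 min across 48°C-58°C, pooled, and extracted in PBS with 0.5% NP-40 at 4°C; soluble protein was the supernatant after 21,000xg for 90 min. Soluble protein was quantified by TMTpro 16plex LC-MS/MS with channel sums equalised, and reported as log2 fold change in thermal stability against DMSO controls, with values from duplicates.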

[2] = compound: C/C(=N\NC(=O)C1=CC(=CC=C1)S(=O)(=O)N2CCOCC2)/C3=C(C=CC(=C3)Cl)O
Summary of the method: as §1

[3] = compound: C1=CC(=C(C=C1Cl)C2=NC3=NC=CN=C3C(=N2)NC4=CC=NC=C4)F
Summary of the method: as §1

[4] = compound: C1=CC(=CC=C1C2=NC3=C(N2)C=C(C=C3)C(=O)N)OC4=CC=C(C=C4)Cl
Summary of the method: as §1

[5] = compound: C1=CC2=C(C=CC(=C2)/C=C\3/C(=O)NC(=NCC4=CC=CS4)S3)N=C1
Summary of the method: as §1

[6] = compound: C1=CC2=NC=CN=C2C=C1/C=C/3\C(=O)NC(=O)S3
Summary of the method: as §1

[7] = compound: C1=CC=C(C=C1)C2=NC(=C(N2)C3=CC=NC=C3)C4=CC(=C(C=C4)Cl)O
Summary of the method: as §1

[8] = compound: C1=CC=C2C(=C1)C3=NNC4=CC=CC(=C43)C2=O
Summary of the method: as §1

[9] = compound: C1CCN(C1)C(=O)NC2=CC=CC(=C2)NC3=NC=C(C(=N3)NCCC4=CN=CN4)Br
Summary of the method: as §1

[10] = compound: C1CN(CCC1(CC2=CC=C(C=C2)Cl)N)C3=NC=NC4=C3C=CN4
Summary of the method: as §1

Measured: log2 fold change

COPS7B (UniProt Q9H9Q2)
inactive: [1] -0.031 | [2] 0.037 | [3] 0.067 | [4] -0.022 | [5] -0.076 | [6] 0.009 | [7] 0.055 | [8] 0.016 | [9] -0.01 | [10] 0.036

COQ9 (UniProt O75208)
inactive: [1] 0.035 | [2] 0.082 | [3] 0.006 | [4] 0.016 | [5] 0.034 | [6] 0.056 | [7] 0.012 | [8] 0.008 | [9] -0.018 | [10] -0.001

COMT (UniProt P21964)
inactive: [1] -0.026 | [2] 0.076 | [3] -0.015 | [4] -0.08 | [5] 0.023 | [6] 0.012 | [7] 0.026 | [8] 0.029 | [9] 0.031 | [10] -0.059

CPT2 (UniProt P23786)
inactive: [1] -0.096 | [2] -0.087 | [3] 0.068 | [4] 0.636 | [5] 0.07 | [6] 0.076 | [7] 0.163 | [8] 0.066 | [9] 0.004 | [10] 0.23

COMMD9 (UniProt Q9P000)
inactive: [1] -0.049 | [2] 0.133 | [3] 0.088 | [4] -0.057 | [5] -0.013 | [6] 0.077 | [7] 0.053 | [8] 0.09 | [9] -0.118 | [10] -0.009

CSNK1G3 (UniProt Q9Y6M4)
inactive: [1] 0.021 | [2] -0.102 | [3] -0.164 | [4] 0.01 | [5] -0.03 | [6] 0.073 | [7] 0.079 | [8] -0.028 | [9] -0.044 | [10] -0.078

CRTC2 (UniProt Q53ET0)
inactive: [1] 0.194 | [2] 0.151 | [3] 0.039 | [4] 0.035 | [5] 0.093 | [6] 0.073 | [7] -0.129 | [8] -0.14 | [9] -0.233 | [10] 0.08

COPS2 (UniProt P61201)
inactive: [1] -0.015 | [2] 0.071 | [3] 0.036 | [4] -0.002 | [5] 0.02 | [6] 0.021 | [7] 0.024 | [8] 0.013 | [9] -0.027 | [10] 0.033

CREG1 (UniProt O75629)
inactive: [1] -0.028 | [2] 0.005 | [3] -0.007 | [4] 0.057 | [5] 0.03 | [6] -0.019 | [7] 0.033 | [8] -0.056 | [9] -0.053 | [10] 0.051

COLGALT1 (UniProt Q8NBJ5)
inactive: [1] -0.053 | [2] -0.03 | [3] -0.045 | [4] 0.033 | [5] -0.057 | [6] 0.004 | [7] -0.014 | [8] 0.062 | [9] -0.003 | [10] -0.018

CREB1 (UniProt P16220)
inactive: [1] -0.082 | [2] 0.025 | [3] -0.033 | [4] 0.002 | [5] 0.037 | [6] -0.028 | [7] -0.039 | [8] 0.005 | [9] 0.011 | [10] -0.137

COPB1 (UniProt P53618)
inactive: [1] -0.043 | [2] 0.041 | [3] 0.052 | [4] 0.019 | [5] -0.012 | [6] 0.039 | [7] 0.025 | [8] 0.018 | [9] -0.011 | [10] 0.03

CPS1 isoform 3 (UniProt P31327)
inactive: [1] -0.002 | [2] 0.283 | [3] -0.021 | [4] 0.072 | [5] -0.049 | [6] -0.137 | [7] 0.02 | [8] -0.213 | [9] -0.072 | [10] 0.036

Taken from the listing (two entries):
CREB1 (UniProt P16220)
inactive: [1] -0.082 | [2] 0.025 | [3] -0.033 | [4] 0.002 | [5] 0.037 | [6] -0.028 | [7] -0.039 | [8] 0.005 | [9] 0.011 | [10] -0.137

COPB1 (UniProt P53618)
inactive: [1] -0.043 | [2] 0.041 | [3] 0.052 | [4] 0.019 | [5] -0.012 | [6] 0.039 | [7] 0.025 | [8] 0.018 | [9] -0.011 | [10] 0.03

Going on with the list.

COX7C (UniProt P15954)
inactive: [1] -0.006 | [2] 0.134 | [3] 0.209 | [4] 0.154 | [5] -0.174 | [6] 0.073 | [7] 0.08 | [8] 0.27 | [9] -0.003 | [10] 0.047

COPS7A (UniProt Q9UBW8)
inactive: [1] -0.008 | [2] -0.015 | [3] 0.03 | [4] -0.035 | [5] 0.037 | [6] 0.02 | [7] 0.014 | [8] 0 | [9] 0.009 | [10] 0.031

COPS8 (UniProt Q99627)
inactive: [1] 0.033 | [2] 0.032 | [3] -0.005 | [4] -0.002 | [5] 0.081 | [6] 0.008 | [7] 0.012 | [8] -0.042 | [9] -0.04 | [10] 0.015

COX6B1 (UniProt P14854)
inactive: [1] 0.027 | [2] 0.011 | [3] 0.247 | [4] -0.045 | [5] 0.118 | [6] 0.048 | [7] 0 | [8] -0.037 | [9] -0.003 | [10] -0.019

CORO2A (UniProt Q92828)
inactive: [1] -0.035 | [2] 0.064 | [4] -0.011 | [5] -0.001 | [6] 0.127 | [7] 0.138 | [8] -0.042 | [9] 0.034 | [10] 0.031

CREM isoform 1 (UniProt Q03060)
inactive: [1] -0.09 | [2] 0.024 | [3] -0.02 | [4] 0.077 | [5] 0.042 | [6] -0.049 | [7] 0.021 | [8] 0.013 | [9] 0.093 | [10] -0.075

CRBN (UniProt Q96SW2)
inactive: [1] 0.043 | [2] 0.026 | [3] 0.028 | [4] 0.011 | [5] -0.021 | [6] 0.03 | [7] -0.036 | [8] 0 | [9] -0.036 | [10] 0.037

CRADD (UniProt P78560)
inactive: [1] -0.036 | [2] 0.113 | [4] 0.032 | [5] 0.122 | [8] 0 | [9] -0.139 | [10] -0.232

CSNK2A1 (UniProt P68400)
inactive: [1] -0.03 | [2] -0.011 | [3] 0.006 | [4] 0.024 | [5] 0.139 | [7] -0.041 | [8] 0.094 | [9] -0.003 | [10] -0.013
active: [6] 0.296

COX7A2L (UniProt O14548)
inactive: [1] -0.004 | [2] 0.08 | [3] 0.175 | [4] 0.062 | [5] 0.124 | [6] 0.054 | [7] 0.028 | [8] -0.014 | [9] 0.007 | [10] 0.041

COMP (UniProt P49747)
inactive: [1] -0.09 | [2] -0.222 | [4] 0.198 | [5] 0.137 | [6] 0.099 | [7] -0.102 | [8] -0.167 | [9] 0.212 | [10] 0.199

COL6A1 (UniProt P12109)
inactive: [1] 0.024 | [2] -0.07 | [4] 0.129 | [5] 0.061 | [6] -0.158 | [7] -0.02 | [8] -0.11 | [9] 0.029 | [10] 0.111

COMMD7 (UniProt Q86VX2)
inactive: [1] -0.046 | [2] 0.024 | [3] -0.063 | [4] 0.048 | [5] 0.025 | [6] 0.061 | [7] -0.039 | [8] -0.012 | [9] -0.063 | [10] 0.017

COX10 (UniProt Q12887)
inactive: [1] 0.061 | [2] 0.037 | [3] 0.155 | [4] 0.175 | [5] 0.051 | [6] 0.108 | [7] -0.204 | [8] -0.048 | [9] 0.04 | [10] 0.021

CORO1B (UniProt Q9BR76)
inactive: [1] 0.021 | [2] 0.065 | [3] 0.011 | [4] -0.008 | [5] -0.006 | [6] 0.025 | [7] 0.009 | [8] 0.053 | [9] -0.029 | [10] 0.018
